PubChem BioAssay AID504791, Drosophila RNAi Screening Center, 2011
In all, the deposit lists about 23,000 reagents; this is an unselected part of those that have a named target and a result. Of all reagents, 199 (0.86%) were called active. 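Plate-scaled ratios behind the calls are not deposited; printed light signals are raw; many rows marked increased or decreased are still called inactive.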 Reagent sequences are not shown. Not stated in the record: the direction of the score.

Aim: 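Genes whose knock-down strengthens or weakens small-RNA reporter silencing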 (primary screen)
Cells: Drosophila S2-derived reporter cells
Reagents: long dsRNA against Drosophila genes, about 150-250 ng dsRNA per well (siRNA assay); about 80-120 ng (miRNA assay)
Time to read-out: about 5 days (siRNA assay); about 4 days (miRNA assay)
Challenge: copper sulfate induction of reporters: 25 µM (siRNA assay); 200 mM stated (miRNA assay), 1-2 days before reading
Measurement: 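Per-well ratio of Renilla over firefly light, expressed relative to that plate's average ratio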
Units: stable assay Renilla, run 1 in luminescence; stable assay firefly, run 1 in luminescence
Call rule: 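a well was a first-pass pick when its plate-scaled ratio rose above 1.5 (siRNA assay) or 1.6 (miRNA assay), or dropped below 0.6; a gene counted only if two separate dsRNAs agreed on retest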

CG15399 [DRSC00413]: stable assay Renilla, run 1 = 8907; stable assay firefly, run 1 = 6.02e5; activity call = inactive
CG7778 [DRSC03067]: stable assay Renilla, run 1 = 11855; stable assay firefly, run 1 = 6.82e5; activity call = inactive
CG32750 [DRSC18848]: stable assay Renilla, run 1 = 6111; stable assay firefly, run 1 = 3.02e5; activity call = inactive
CG14718 [DRSC14941]: stable assay Renilla, run 1 = 8299; stable assay firefly, run 1 = 5.47e5; activity call = inactive
AGBE [DRSC06861]: stable assay Renilla, run 1 = 9162; stable assay firefly, run 1 = 4.94e5; activity call = inactive
CG7557 [DRSC10878]: stable assay Renilla, run 1 = 7163; stable assay firefly, run 1 = 3.45e5; activity call = inactive
CG5355 [DRSC02844]: stable assay Renilla, run 1 = 9556; stable assay firefly, run 1 = 9.61e5; activity call = inactive
CG1288 [DRSC12538]: stable assay Renilla, run 1 = 6904; stable assay firefly, run 1 = 3.80e5; activity call = inactive
Tre1 [DRSC18726]: stable assay Renilla, run 1 = 4620; stable assay firefly, run 1 = 2.45e5; activity call = inactive

Laid out differently: 2 of the entries above.
gene | dsRNA | stable assay Renilla, run 1 | stable assay firefly, run 1 | activity call
CG1288 | DRSC12538 | 6904 | 3.80e5 | inactive
Tre1 | DRSC18726 | 4620 | 2.45e5 | inactive

Continued.
kis [DRSC00521]: stable assay Renilla, run 1 = 6996; stable assay firefly, run 1 = 3.97e5; activity call = inactive
kis [DRSC00625]: stable assay Renilla, run 1 = 5795; stable assay firefly, run 1 = 2.82e5; activity call = inactive
kis [DRSC00823]: stable assay Renilla, run 1 = 10367; stable assay firefly, run 1 = 1.58e5; activity call = inactive
CG1440 [DRSC17915]: stable assay Renilla, run 1 = 7715; stable assay firefly, run 1 = 5.20e5; activity call = inactive
CG41020 (retired record) [DRSC20866]: stable assay Renilla, run 1 = 3920; stable assay firefly, run 1 = 3.30e5; activity call = inactive
CG17048 [DRSC06649]: stable assay Renilla, run 1 = 6255; stable assay firefly, run 1 = 3.76e5; activity call = inactive
Gpdh2 [DRSC04346]: stable assay Renilla, run 1 = 4524; stable assay firefly, run 1 = 3.28e5; activity call = inactive
CG4377 [DRSC04467]: stable assay Renilla, run 1 = 1.98e5; stable assay firefly, run 1 = 3.88e5; activity call = inactive
salto [DRSC06291]: stable assay Renilla, run 1 = 8678; stable assay firefly, run 1 = 4.42e5; activity call = inactive
CG7387 [DRSC10833]: stable assay Renilla, run 1 = 7778; stable assay firefly, run 1 = 3.88e5; activity call = inactive
